# Library screen at single concentrations

The chains behind the UniProt entries cited, without tags or fusion partners.
UniProt P9WNZ1, whole entry: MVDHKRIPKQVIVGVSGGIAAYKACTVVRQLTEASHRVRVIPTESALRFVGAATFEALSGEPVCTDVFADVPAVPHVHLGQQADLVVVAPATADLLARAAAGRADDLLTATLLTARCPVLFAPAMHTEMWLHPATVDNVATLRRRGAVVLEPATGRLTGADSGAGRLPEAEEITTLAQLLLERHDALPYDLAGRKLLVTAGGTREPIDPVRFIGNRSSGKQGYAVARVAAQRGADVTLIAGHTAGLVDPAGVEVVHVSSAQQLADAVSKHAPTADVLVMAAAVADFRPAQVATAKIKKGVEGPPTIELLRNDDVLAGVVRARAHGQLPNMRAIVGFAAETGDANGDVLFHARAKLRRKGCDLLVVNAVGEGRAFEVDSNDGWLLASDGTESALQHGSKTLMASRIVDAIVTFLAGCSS

Measurements from “University of Dundee, Small-Polar-MMV Screening Library” (2021), ChEMBL document CHEMBL3988442.

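Enzyme assay of CoaBC with a phosphate dye (Biomol Green) read at 650 nm. Target: Coenzyme A biosynthesis protein CoaBC, Mycobacterium tuberculosis (UniProt P9WNZ1). Compounds at 30 µM. Direction is inferred from only a few compounds that gave an IC50; most scored high, so higher reads as stronger inhibition. Most strong results did not repeat in a second test. Of about 67,000 compounds tested this way, about 40 (0.06%) reached 50% or more in at least one test.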

Each number is a percent effect as filed.
The record does not define 0% and 100%; most values in the screen are far below 50% and negative numbers occur (in some assays of this library far below -100).
Compounds were drawn at random from those tested, without regard to their results.

Compound	Percent Effect
CN(C(=O)C1CCC1)C1CCN(c2ccccc2Cl)C1=O (centres undefined)	7.215
O=C(c1c[nH]cn1)N1CCOCC2(C1)CN(c1ccccc1)C(=O)CO2 (centres undefined)	7.028
Cc1cc(Nc2cnccn2)cc(C2CCCNC2)n1 (centres undefined)	6.621
c1ccc2[nH]c(C3CCN(Cc4noc(C5CC5)n4)CC3)cc2c1	11.16
COCC1CCCN(CCCc2cccc(OC)c2)C1 (centres undefined)	-1.572
Cn1cnc2c1CCN(CCS(=O)(=O)c1ccc(Cl)cc1)C2	2.35
Cc1cc(C2CCCN2Cc2cccc(C(=O)Nc3nccs3)c2)no1 (centres undefined)	7.282
O=C(CCc1cc(Cl)no1)N1CCN(CCn2cncn2)CC1	-1.775
Cc1ccc(NC(=O)CCc2ccco2)cc1N1CCOC1=O	1.21
CN(CCN1CCCCC1=O)Cc1cc2cc3c(cc2[nH]c1=O)OCO3	8.82
CC(C)NC(=O)NC[C@H]1OC[C@@H](NCc2ccc(S(C)(=O)=O)cc2)[C@@H]1O	8.065
CCCS(=O)(=O)N1C[C@H]2C[C@H](C(=O)N3CCN(C)CC3)[C@@H](C1)O2	-1.416
Cc1ccccc1-c1ncc(CNCc2csc(C(C)C)n2)s1	7.923
Cn1ncc2c(N[C@H]3CCCC[C@@H]3O)nc(C(C)(C)C)nc21	-3.567
CCC1CN(CCCNS(C)(=O)=O)c2ccccc2O1 (centres undefined)	4.177
Cc1ccc(CN2C[C@@H]3CN(c4ncccn4)C[C@@H]3C2)cc1	-4.863
O=C(c1cnnn1-c1ccccc1)N1CCCC(c2ccn[nH]2)C1 (centres undefined)	7.654
COc1cc(CCC(=O)NC2CCCN(C)C2)ccc1OCC(F)(F)F (centres undefined)	1.434
CC(NC(=O)N1CCN(c2nccs2)CC1)c1nncn1C (centres undefined)	3.394
CCCOCC(=O)Nc1ncc(I)cc1C	3.984
COCc1noc(CCNC(=O)c2ccc(C3CCCO3)s2)n1 (centres undefined)	3.024
Cc1nn(-c2ncccn2)c2c1C(c1cnn(C)c1C)SCC(=O)N2 (centres undefined)	1.515
COc1ccccc1COCC(O)CN1CCC(c2ccn[nH]2)CC1 (centres undefined)	3.675
Cc1nnc([C@H]2CCN(CCCc3ccccc3)C2)o1	9.707
Fc1cccc(Cl)c1CNCc1ccccn1	-22.92
Cc1ccc(C(=O)N2CC(=O)N(Cc3cccs3)CC(O)C2)cc1 (centres undefined)	-0.2421
CCN(Cc1cccc(C(=O)Nc2cn(C)nn2)c1)[C@H]1COC[C@@H]1O	14.06
CN(C)c1nccnc1C1CCN(C(=O)C2(C)CCCCN2C)CC1 (centres undefined)	12.83
CCN1CC(C(=O)NCc2ccccc2-n2cccn2)CC1=O (centres undefined)	6.154
CCn1nnc2c1C(COC)CN(C(=O)Cc1cccs1)C2 (centres undefined)	3.934
O=C(C[C@@H]1COC[C@H]2CN(Cc3ccccn3)C[C@@H]12)N1CCOCC1	0
COc1ccc(CN(C)CC(O)COCc2ccccc2Cl)c(OC)c1 (centres undefined)	1.772
COc1cc(NC(=O)c2cc(C)sc2C)c(C(=O)N(C)C)cc1OC	6.364
O=C([C@H]1COC[C@H]2CN(C3CCOCC3)C[C@H]21)N1CCCCO1	0.6452
CC(C)c1nnc(CN2CCCC(c3cc(C(N)=O)[nH]n3)C2)o1 (centres undefined)	3.728
CCn1ncc2c1C(COC)CN(c1ncc(F)cn1)C2 (centres undefined)	3.96
COc1ccc(OCc2cc(C(=O)N3CCOCC3)n[nH]2)c(Cl)c1	12
CS(=O)(=O)NC[C@]12COC[C@H]1CN(C(=O)N1CCCC1)C2	1.975
CC[C@H]1CN2CC[C@H]1C[C@@H]2CNC(=O)NC1CCCCC1	1.129
CC(C)NC(=O)N1CCN(C(=O)c2ccco2)CC2(CC(=O)N(C)C2)C1 (centres undefined)	4.261
COCCS(=O)(=O)NC(C)c1cccc(C)c1C (centres undefined)	-1.402
O=C1CN(C(=O)c2cc(-c3ccco3)nc3c(Cl)cccc23)CCN1	1.463
O=C1CSCN1Cc1nc(-c2ccc(N3CCCCC3)cc2)no1	-4.545
O=C(c1cscn1)N1CCC2(CC1)CCN(S(=O)(=O)c1ccccc1)C2	5.684
CN1C(=O)CO[C@H]2CN(C(=O)Nc3ccc(F)cc3)C[C@H]21	9.627
NCc1cn(CC2CCCN(C(=O)NCCc3ccc(F)cc3)C2)nn1 (centres undefined)	-2.195
Cc1ccc(C)c2c(C)c(C(=O)NCCC(=O)N3CCOCC3)oc12	-4.435
COc1ccccc1OC1CCN(C(=O)CCCN2CCOCC2)CC1	1.525
Cc1cc(CNc2cc(Cl)ccc2Cl)no1	-0.5181
CN(Cc1ccsc1)C(=O)Nc1ccc(S(C)(=O)=O)nc1	2.057
Cc1cc(C2CCCN(Cc3nnc(Cc4ccccc4)o3)C2)n[nH]1 (centres undefined)	-4.084
CCC1c2ccsc2CCN1C(=O)NCc1ccc(C)nc1 (centres undefined)	5.526
CC[C@H](C)[C@@H](CO)NC(C)Cc1ccc(F)cc1 (some centres undefined)	8.76
COC(=O)CNC(=O)c1ccc(OC2CCN(S(C)(=O)=O)CC2)c(Cl)c1	-11.64
Cc1cnc(C)c(N2CCCC(CC3CC3)(C(=O)O)C2)n1 (centres undefined)	2.404
CC(C)c1cc(NC(=O)CN2CCC(C(N)=O)CC2)on1	-5.63
Cc1ncc(CN(C)C(=O)c2ccc3c(c2O)OC(C)(C)C3)s1	11.35
COCCn1cc(C(=O)N2CCCC2c2cccs2)c2ccccc21 (centres undefined)	12.7
Cc1ccc(CNC2(Cc3cc(-c4ccc(F)cc4)on3)COC2)o1	13.91
CN(C)C1CCN(c2cc(-c3ccccc3)nc3ccnn23)C1 (centres undefined)	-0.4866
CCS(=O)(=O)N1C[C@H]2CN(Cc3cccc(C)c3)C(=O)[C@H]2C1	1.713
CCOCCN1CCN(CC(=O)NC2(C#N)CCCC2)CC1CC (centres undefined)	1.595
O=C(CSc1nncs1)N1CCN(Cc2ccc(Cl)cc2)CC1	-18.59
c1nc(N2CCOC(Cn3cncn3)C2)c2sccc2n1 (centres undefined)	2.284
COc1ccc(OC)c(CN2CCN(Cc3cscn3)CC2)c1	2.659
COc1ccc2cc(CN(C)CCN3CCCCC3=O)c(=O)[nH]c2c1	1.118
Cc1cc(N2CCC(n3cc(CN4CCSCC4)nn3)CC2)ccn1	0.86
COCCN1C(=O)CC[C@@H]2[C@@H]1CCN2Cc1c(C)noc1C	-1.22
OCc1csc(N2CCCC(COc3cccc(F)c3)C2)n1 (centres undefined)	12.46
c1cnc(N2CCCC(c3csc(Nc4cnccn4)n3)C2)nc1 (centres undefined)	0.4566
COCc1nccc(C2CCCN(Cc3cccc(F)c3)C2)n1 (centres undefined)	-0.1965
CC(C)(C)CC(=O)Nc1cnn(-c2ccccc2S(C)(=O)=O)c1	-1.119
Cc1nc(NC2CCN(C(=O)C3CC3)CC2)c2cnn(C)c2n1	0.1215
CCn1ncnc1CN1CCc2[nH]cnc2C1Cc1ccccc1 (centres undefined)	-17.36
COc1cnc(CN2CC(=O)N(c3ccc(C)cc3)CC2C)cc1O (centres undefined)	-3.676
COCCO[C@@H]1CCN(C(=O)c2ccc(C)o2)[C@@H]1Cc1cnn(C)c1	5.59
CC(C)(C)c1n[nH]cc1CNC1CCC(OCC(F)(F)F)CC1 (centres undefined)	5.395
CCc1nnc2n1CCN(C(=O)c1csc(-c3cnn(C)c3)n1)C2	9.705
COc1c(CNCc2cccc(CN3CCOCC3)c2)c(C)nn1C	2.066
N#Cc1cc2c(nc1SCc1cc(O)nc(O)n1)CCCCC2	-0.6135
O=C(NCCCn1cccn1)c1nc2ccccc2[nH]1	-0.3891
CC(C)c1noc(CCCC(=O)NC(C)c2nnc3n2CCC3)n1 (centres undefined)	0.8584
FC(F)(F)c1nc(C2CCCNC2)no1 (centres undefined)	-10.36
COc1cccc(CCNC(=O)CN2CCCC2c2noc(C)n2)c1 (centres undefined)	4.722
O=C(NCC1CCOCC1)[C@@H]1CC[C@@H]2[C@@H](CCN2Cc2ccncc2)O1	-1.975
Cc1ncccc1CNc1ccc(OCCO)nc1	2.439
COCCN1C[C@@H]2[C@@H](OC)CCN(C(=O)c3cccc(OC)c3)[C@@H]2C1	10.4
O=C(NCC1CCC2(CC1)OCCO2)c1cccc(-n2cccn2)c1	-4.578
O=C(COc1cccc2c1CCC2=O)NCc1ccccc1F	5.263
O=C(N[C@@H]1C[C@H]2CC[C@@H]1C2)C1(Oc2ccc(Cl)cc2)CCNCC1	-40.27
Fc1cccc(N2CCCC3(CN(Cc4ccncc4)CCO3)C2)c1 (centres undefined)	12.69

The first 12 entries again:

Compound,Percent Effect
CN(C(=O)C1CCC1)C1CCN(c2ccccc2Cl)C1=O (centres undefined),7.215
O=C(c1c[nH]cn1)N1CCOCC2(C1)CN(c1ccccc1)C(=O)CO2 (centres undefined),7.028
Cc1cc(Nc2cnccn2)cc(C2CCCNC2)n1 (centres undefined),6.621
c1ccc2[nH]c(C3CCN(Cc4noc(C5CC5)n4)CC3)cc2c1,11.16
COCC1CCCN(CCCc2cccc(OC)c2)C1 (centres undefined),-1.572
Cn1cnc2c1CCN(CCS(=O)(=O)c1ccc(Cl)cc1)C2,2.35
Cc1cc(C2CCCN2Cc2cccc(C(=O)Nc3nccs3)c2)no1 (centres undefined),7.282
O=C(CCc1cc(Cl)no1)N1CCN(CCn2cncn2)CC1,-1.775
Cc1ccc(NC(=O)CCc2ccco2)cc1N1CCOC1=O,1.21
CN(CCN1CCCCC1=O)Cc1cc2cc3c(cc2[nH]c1=O)OCO3,8.82
CC(C)NC(=O)NC[C@H]1OC[C@@H](NCc2ccc(S(C)(=O)=O)cc2)[C@@H]1O,8.065
CCCS(=O)(=O)N1C[C@H]2C[C@H](C(=O)N3CCN(C)CC3)[C@@H](C1)O2,-1.416